The record followed here is the supplement of paper PMC3047530.

The structures appear in SMILES notation. ± gives the standard deviation of the averaged measurements. The list shows a part of the results. Repeats are few or missing, and single values can be far off.

The subject of this assay is Geomyces destructans. The experiment in a line: growth inhibition relative to DMSO control; higher = stronger growth inhibition. The settings on record: 10 µM; 15 °C; incubation time 10 days.
In the case of `CCCCCCc1ccc(O)cc1O.Nc1c2ccccc2nc2ccccc12`, the growth inhibition was -27.5%. Turning to `COC(=O)Nc1nc2cc(C(=O)c3ccccc3)ccc2[nH]1`, the growth inhibition was -7.17%. As for `CC1(C)S[C@@H]2[C@H](NC(=O)[C@H](NC(=O)N3CCNC3=O)c3ccccc3)C(=O)N2[C@H]1C(=O)O`, the figure is -4.76%; as for `NC(=O)c1cc[n+](CC2=C(C(=O)O)N3C(=O)[C@@H](NC(=O)[C@@H](c4ccccc4)S(=O)(=O)[O-])[C@H]3SC2)cc1`, -11.6%. As for `CC(CCc1ccccc1)NCC(O)c1ccc(O)c(C(N)=O)c1` (stereo not drawn), the figure is -4.26%; as for `CCOC(=O)[C@H](CCc1ccccc1)N[C@@H](C)C(=O)N1Cc2ccccc2C[C@H]1C(=O)O`, -5.58%; as for `CC(C)CCCCCOC(=O)COc1cc(Cl)c(Cl)cc1Cl`, -11.7%. `COc1ccc(C(Cl)=C(c2ccc(OC)cc2)c2ccc(OC)cc2)cc1`: the growth inhibition amounted to 5.39%. As for `O=C(O)c1cccnc1Nc1cccc(C(F)(F)F)c1`, the figure is 0.462%; as for `CN(C)/N=N/c1[nH]cnc1C(N)=O`, -7.18%. The figure for `C[N+](C)(C)CCCCCC[N+](C)(C)C` is -11.1%; for `CC[N+](C)(C)Cc1ccccc1Br` it is -2.37%. As for `Cc1cc(O)c(C=O)c2c1C(=O)Oc1c(C)c(O)c3c(c1O2)C(O)OC3=O` (stereo not drawn), the figure is 1.97%; as for `CN1C(C)(C)CCCC1(C)C`, -28.1%; as for `Cc1onc(-c2c(Cl)cccc2Cl)c1C(=O)N[C@@H]1C(=O)N2[C@@H]1SC(C)(C)[C@@H]2C(=O)O`, 1.78%.

Take `O=C(Oc1cc(O)cc2c1C[C@@H](OC(=O)c1cc(O)c(O)c(O)c1)[C@@H](c1ccc(O)c(O)c1)O2)c1cc(O)c(O)c(O)c1`: the growth inhibition is -2.67%. Consider `CC(C)(C(=O)O)c1ccc(C(O)CCCN2CCC(C(O)(c3ccccc3)c3ccccc3)CC2)cc1` (stereo not drawn), for which the growth inhibition was -27.3%. The figure for `COc1c2ccoc2c(OC)c2oc(=O)ccc12` is -27.9%; for `COc1ccc([C@@H]2CC(=O)c3c(O)cc(O[C@@H]4O[C@H](CO[C@@H]5O[C@@H](C)[C@H](O)[C@@H](O)[C@H]5O)[C@@H](O)[C@H](O)[C@H]4O)cc3O2)cc1O` it is 2.1%; for `C[N+]1(C)C[C@H](O)C[C@H]1C(=O)[O-]` it is -8.53%. As for `C=CC(C1=CC(=O)C=CC1=O)c1ccccc1` (stereo not drawn), the figure is 2.16%. The figure for `CC(=O)OC1CCC2(C)C(CCC3C2CCC2(C)C3CC3OC4(CCC(C)CO4)C(C)C32)C1` (stereo not drawn) is -1.75%; for `CN(C)CCCN1c2ccccc2Sc2ccccc21` it is -12.6%. On to `Cc1cc(C(C)(C)C)c(O)c(C)c1CC1=NCCN1`, for which the growth inhibition is -15.1%. In the case of `COC(=O)[C@H]1[C@H]2C[C@H]3c4[nH]c5ccccc5c4CCN3C[C@@H]2CC[C@@H]1O`, the growth inhibition was found to be 5.48%. As for `CC(=O)Nc1ccccc1`, the figure is -8.46%; as for `COc1ccc(-c2cc(=O)c3c(O)cc(O)c(-c4cc(-c5cc(=O)c6c(O)cc(O)cc6o5)ccc4OC)c3o2)cc1`, -5.81%.

With `COc1ccc2c(=O)c(-c3cc4c(cc3OC)OCO4)coc2c1`, the growth inhibition stood at 0.0787%. As for `C[N+]1(C)[C@@H]2CC[C@H]1C[C@@H](OC(=O)C(O)c1ccccc1)C2` (stereo partly drawn), the figure is -0.678%.

Consider `COc1ccc2c(c1)OC1(O)COc3cc(OC)c(OC)cc3C1=C2` (stereo not drawn), for which the growth inhibition was -17%.

Turning to `Oc1ncnc2[nH]ncc12`, the growth inhibition was -26.1%.

`C[C@]12CCC(=O)C=C1CC[C@@H]1[C@@H]2[C@@H](O)C[C@@]2(C)[C@H]1CC[C@]2(O)C(=O)CO`: the growth inhibition was -13.7%.

For `OC1=Cc2c(O)cc(O)cc2OC1(O)c1ccc(O)c(O)c1` (stereo not drawn), the growth inhibition amounted to 9.15%. Turning to `CC1(C)C(=O)C=C[C@]2(C)[C@H]3CC[C@@]4(C)[C@H](c5ccoc5)OC(=O)[C@H]5O[C@]54[C@]3(C)C(=O)C[C@@H]12`, the growth inhibition was -8.86%. As for `COc1cc(O)c(C(=O)c2ccccc2)c(OC)c1`, the figure is -18.9%.

Consider `C[N+]1(CCCCC[N+]2(C)CCCC2)CCCC1`, for which the growth inhibition is -5.4%. The figure for `O=C(O[C@@H]1Cc2c(O)cc(O)cc2O[C@@H]1c1cc(O)c(O)c(O)c1-c1c([C@H]2Oc3cc(O)cc(O)c3C[C@H]2O)cc(O)c(O)c1O)c1cc(O)c(O)c(O)c1` is 3.94%; for `Cc1onc(-c2ccccc2)c1-c1ccc(S(N)(=O)=O)cc1` it is -27.5%; for `CCCc1cc(=O)[nH]c(=S)[nH]1` it is -11.5%. As for `CN(N=O)C(=O)N[C@H]1C(O)O[C@H](CO)[C@@H](O)[C@@H]1O` (mixture of isomers), the figure is -5.08%; as for `COC(=O)CC1C(C)(C)C(=O)C2CC3(O)C4=CC(=O)OC(c5ccoc5)C4(C)CCC3C1(C)C2=O` (stereo not drawn) [8beta-HYDROXYCARAPIN], -5.7%; as for `N=C(N)c1ccc(OCCCCCOc2ccc(C(=N)N)cc2)cc1`, 70.2%. Turning to `O=C(OC[C@H]1O[C@@H](OC(=O)c2cc(O)c(O)c(OC(=O)c3cc(O)c(O)c(O)c3)c2)[C@H](OC(=O)c2cc(O)c(O)c(OC(=O)c3cc(O)c(O)c(O)c3)c2)[C@@H](OC(=O)c2cc(O)c(O)c(OC(=O)c3cc(O)c(O)c(O)c3)c2)[C@@H]1OC(=O)c1cc(O)c(O)c(OC(=O)c2cc(O)c(O)c(O)c2)c1)c1cc(O)c(O)c(OC(=O)c2cc(O)c(O)c(O)c2)c1`, the growth inhibition was -9.03%.

For the compound `COc1ccc(/C=C/C(=O)O)cc1OC`, the growth inhibition came out at 5.27%. Take `CCCCC(=O)O[C@H]1CC[C@H]2[C@@H]3CCc4cc(O)ccc4[C@H]3CC[C@]12C`: the growth inhibition stood at 38.7%.

Regarding `Fc1ccc(C(c2ccc(F)cc2)N2CCN(C/C=C/c3ccccc3)CC2)cc1`, the growth inhibition is -12.5%.

As for `CN1CCc2c(c3ccccc3n2Cc2ccccc2)C1`, the growth inhibition was -39.6%.

As to `CN[C@@H]1[C@H](O[C@H]2[C@H](O[C@H]3[C@H](O)[C@@H](O)[C@H](N=C(N)N)[C@@H](O)[C@@H]3N=C(N)N)O[C@@H](C)[C@]2(O)C=O)O[C@@H](CO)[C@H](O)[C@H]1O`, the growth inhibition was -9.79%. The figure for `COc1cc(-c2coc3cc(OCc4ccccc4)c(OC)c(O)c3c2=O)cc(OCc2ccccc2)c1OC` is -2.67%; for `Cc1cccc(C(=O)O)c1O` it is 15.6%.

Regarding `N=C(N)NC(=N)Nc1ccccc1`, the growth inhibition is -10.8 ± 0.15%. The figure for `CC1(C)S[C@@H]2[C@H](NC(=O)[C@H](N)c3ccc(O)cc3)C(=O)N2[C@H]1C(=O)O` is -34.2%; for `Cc1cc(O)c(C)c(O)c1C(=O)O` it is -2.48%. As for `O=C(O)CCCCCCCCCCCC[C@@H]1C=CCC1`, the figure is 1.76%. For `COc1cc(OC)c2c(=O)c(O)c(-c3ccc(OC)c(OC)c3)oc2c1`, the growth inhibition is -10.3%. In the case of `CNCc1ccccc1`, the growth inhibition was -9.64%. `COc1cc(OC)cc(OC)c1`: the growth inhibition was -17.1%. The figure for `COc1cc2c(cc1O)C(Cc1ccc(O)cc1)N(C)CC2` (stereo not drawn) is -12.4%.
